Results on 19 molecules are retold here after paper PMC10163288.

First the molecules themselves.
B1: il10ra_site1_normal_mot_HHH_b2_06926_000000122_0001_1_20_H_._HHH_b2_01013_af2_0001_0000100006_0000002_0 (protein)
chain: SSSSSTLEEQLEILKRYLELLLENNDEEVLKALLRQAEEVARRLGDEELEELVEEIRRELSSSSS
B2: il10ra_site1_normal_mot_HHH_b1_06804_000000054_0001_40_54_H_._HHH_b1_06242_af2_0002_0000600032_0000001_0 (protein)
chain: SSSSDEEEELEELLEEIKKLLEEGDPEEALRLIQEALQLAFQLRDEEALQILYELARLASSSSSS
B3: il10ra_site1_sap_19_mot_HHH_b2_07521_000000141_0001_20_37_H_._HHH_b1_07537_af2_0001_0000400008_0000001_0_0001 (protein)
chain: SSSSSDEERLEELLEELKELLEEGDRERFLRVALEVLRLAFQSSDEEALQAVWRLVKKWGSSSSS
B4: il10ra_site1_normal_mot_HHH_b2_03220_af2_000000223_0001_23_40_H_._HHH_b2_07778_af2_0001_0000300008_0000001_0_af2pred_0001 (protein)
chain: SSSSSSSEREEALRLIREALHIDDKEEAQELLEEARELAEEANNPVIRRSIEFLLSQLSSSSSSS
B5: il10ra_site1_normal_mot_HHH_b2_02053_af2_000000006_0001_3_19_H_._HHH_b1_04837_af2_0001_0000900044_0000001_0_af2pred_0001 (protein)
chain: SSSSSELSERAIELIRRILELRHQGDPEEARELLEELQEVVEESGDPLFHFLLEILEKELSSSSS
B6: il10ra_site1_sap_20_mot_HHH_b2_02337_000000026_0001_38_52_H_._HHH_b2_03345_0001_0000100009_0000001_1_0001 (protein)
chain: SSSTEEEIKELLEELKELIERGDEEEVAQLAAEIMRAIYELGDEELAEELLRLLAEFLERQSSSS
B7: il10ra_site1_normal_mot_HHH_b1_08411_af2_000000053_0001_1_20_H_._HHH_b2_02982_0001_0000300041_0000002_0 (protein)
chain: SSSSQEAFELTREAIEEAKELFEEGNREEAEELLKEVLEEVRELGNFAAEFSLEHLLRVLSSSSS
B8: il10ra_site1_sap_16_mot_HHH_b1_05021_af2_000000167_0001_42_56_H_._HHH_b2_06441_af2_0001_0000200015_0000002_0_0001 (protein)
chain: SSSSSSDVEELLEEARELAEEGDPRAIEVLQRALQHAYRLGDEELLREIWELVRRIANSSSSSSS
B9: il10ra_site1_normal_mot_HHH_b2_00943_af2_000000149_0001_1_17_H_._HHH_b1_07323_0001_0000500032_0000001_0_af2pred_0001 (protein)
chain: SSSDVEEVLELAEEALRLAEERNDEAAQFTLRVTLKTLELTGDPHAERILRRLAETLLKELRSSS
B10: il10ra_site1_normal_mot_HHH_b1_05879_000000258_0001_1_19_H_._HHH_b1_03479_0001_0000400033_0000001_0 (protein)
chain: SSSSDTLEWSVRFALREAERLYELGDPERAEELLRRLVELLREAGNEELVELVERVLEELNSSSS
B11: il10ra_site1_sap_24_mot_HHH_b1_04275_000000001_0001_22_39_H_._HHH_b1_02595_af2_0001_0000100006_0000001_0_0001 (protein)
chain: SSSSDNEEVFELLRRALELLAEGNPEEAEKLLEEARELAEKAGSRLFEINIEFILEDIEESSSSS
B12: il10ra_site1_sap_25_mot_HHH_b1_06912_af2_000000235_0001_1_15_H_._HHH_b1_08405_0001_0000400043_0000001_0_0001 (protein)
chain: SSSSTLEELVEAAIRIAHQALEAGNPRLARHLLEALLEALERLGNPELVEEVEKLLEEVRNSSSS
B13: il10ra_site1_sap_18_mot_HHH_b1_02766_af2_000000078_0001_42_56_H_._d50532fa1587236c3ce0ee4f17a021f6_0001_1_0001_0000300015_0000001_0_0001 (protein)
chain: SSSSSDETQELYELSKRIVELLHEGNPEEAEELLEQLRRLAEELNNWTIRAIVEFLEKQLSSSSS
B14: il10ra_site1_normal_mot_HHH_b1_07380_000000129_0001_1_20_H_._HHH_b1_04763_0001_0000400043_0000001_0 (protein)
chain: SSSSTEEHHELYRISREIAELEAEGNPEEARRLLEQLEELAEELNDFIVRFVVRLLEESLSSSSS
B15: il10ra_site1_sap_26_mot_HHH_b2_07006_000000108_0001_1_19_H_._HHH_b2_00401_0001_0000100003_0000001_0_0001 (protein)
chain: SSSSSDEELKEEVEELEEQARHIEDPHEFARILARAVQLAYRLGDAELLHEIWELIHKARSSSSS
B16: il10ra_site1_sap_20_mot_HHH_b2_05343_000000235_0001_19_35_H_._HHH_b1_06694_af2_0001_0000100002_0000001_0_0001_af2pred_0001 (protein)
chain: SKLEEVEELLEELAKTDIVAVSLLHLLRADKKAGVPPEEILERLQEIAKLADTPFARELLKLLEK
B17: il10ra_site1_sap_25_mot_HHH_b1_07590_af2_000000040_0001_1_19_H_._HHH_b1_00813_0001_0000100006_0000002_0_0001 (protein)
chain: SSSSDVEEEVERLLEEAEELRERGNPEEARELMLEALRLAIQAQNKELLRLVWEVVRRLASSSSS
B18: il10ra_site1_normal_mot_HHH_b2_03220_af2_000000223_0001_23_40_H_._HHH_b1_01139_af2_0001_0000100001_0000001_0_af2pred_0001 (protein)
chain: SSSSTEESERVYEILREALEIEDKEEAEEVVEEAVELAEELNSPVLAIAARFLLRALREGSSSSS
B19: il10ra_site1_normal_mot_a6c796b944619e241e020fd597ddb6da_0001_af2_000000092_0001_15_31_H_._HHH_b1_07083_0001_0000200016_0000001_0 (protein)
chain: SSSSSSDEEQRARALVRFAKLASNPEAAKITLEVALELARKLNDEELVEEIEELLEEYSSSSSSS

This is one part of the list.

This experiment has as its target il10ra, Q13651. Kind of experiment: yeast display titration.
As to B1, the “apparent Kd” value was “inactive: no binding seen”.
Then B2, with “inactive: no binding seen”.
Then B3, with “inactive: no binding seen”; and B4, with “inactive: no binding seen”; and B5, with “inactive: no binding seen”.
Take B6: the “apparent Kd” value was “inactive: no binding seen”.
Take B7: the “apparent Kd” value was “inactive: no binding seen”.
For B8, the “apparent Kd” value was “inactive: no binding seen”.
Then B9, with “inactive: no binding seen”; and B10, with “inactive: no binding seen”; and B11, with “inactive: no binding seen”.
As for B12, the “apparent Kd” value is “inactive: no binding seen”.
The value for B13 was “inactive: no binding seen”; that for B14 was “inactive: no binding seen”; that for B15 was “inactive: no binding seen”.
Then B16, with “inactive: no binding seen”.
The value for B17 was “inactive: no binding seen”.
Regarding B18, the “apparent Kd” value was “inactive: no binding seen”.
The value for B19 was “inactive: no binding seen”.
